Some results were stated once for a whole list of compounds, not compound by compound.
Experiment: Stability of Itra and Posa in VE-acetone/PEG/D5W formulations (HPLC)
Assay type: physicochemical
Conditions: VE-acetone/PEG diluted in D5W to a final concentration of 2 mg/mL, RT

Compound: CC[C@@H]([C@H](C)O)n1ncn(-c2ccc(N3CCN(c4ccc(OC[C@@H]5CO[C@@](Cn6cncn6)(c6ccc(F)cc6F)C5)cc4)CC3)cc2)c1=O [Posaconazole, posaconazole]
- time stable: at least 15 hours

— patent US10028949B2, “Parenteral formulations of lipophilic pharmaceutical agents and methods for preparing and using the same” (priority 2011, dated 2018)
